This is an account of results in the supplement of paper PMC6411743.

Sequences of proteins named here, by UniProt entry; tags and fusion partners are left off. A change or cut given only in a name is not applied to a line headed by its entry.
UniProt Q8IZ81: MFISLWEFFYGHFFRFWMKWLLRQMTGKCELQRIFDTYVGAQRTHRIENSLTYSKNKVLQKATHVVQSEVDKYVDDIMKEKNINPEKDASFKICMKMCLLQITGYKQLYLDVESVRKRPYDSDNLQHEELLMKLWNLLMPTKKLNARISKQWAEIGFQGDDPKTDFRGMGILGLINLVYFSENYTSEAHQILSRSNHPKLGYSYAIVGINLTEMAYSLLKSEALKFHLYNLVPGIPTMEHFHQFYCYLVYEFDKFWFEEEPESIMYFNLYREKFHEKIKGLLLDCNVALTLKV
UniProt Q8N490: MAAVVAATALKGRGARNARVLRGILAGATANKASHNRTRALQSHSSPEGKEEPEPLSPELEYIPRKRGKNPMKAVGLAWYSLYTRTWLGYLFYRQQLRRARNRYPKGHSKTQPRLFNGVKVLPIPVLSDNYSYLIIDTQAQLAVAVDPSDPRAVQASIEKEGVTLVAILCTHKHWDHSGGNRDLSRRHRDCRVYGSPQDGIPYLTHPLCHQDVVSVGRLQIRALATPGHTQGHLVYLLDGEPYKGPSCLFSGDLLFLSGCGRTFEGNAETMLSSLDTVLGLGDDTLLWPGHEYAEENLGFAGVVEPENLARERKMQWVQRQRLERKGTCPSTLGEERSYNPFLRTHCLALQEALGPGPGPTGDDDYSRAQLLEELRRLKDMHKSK
UniProt Q86UV5: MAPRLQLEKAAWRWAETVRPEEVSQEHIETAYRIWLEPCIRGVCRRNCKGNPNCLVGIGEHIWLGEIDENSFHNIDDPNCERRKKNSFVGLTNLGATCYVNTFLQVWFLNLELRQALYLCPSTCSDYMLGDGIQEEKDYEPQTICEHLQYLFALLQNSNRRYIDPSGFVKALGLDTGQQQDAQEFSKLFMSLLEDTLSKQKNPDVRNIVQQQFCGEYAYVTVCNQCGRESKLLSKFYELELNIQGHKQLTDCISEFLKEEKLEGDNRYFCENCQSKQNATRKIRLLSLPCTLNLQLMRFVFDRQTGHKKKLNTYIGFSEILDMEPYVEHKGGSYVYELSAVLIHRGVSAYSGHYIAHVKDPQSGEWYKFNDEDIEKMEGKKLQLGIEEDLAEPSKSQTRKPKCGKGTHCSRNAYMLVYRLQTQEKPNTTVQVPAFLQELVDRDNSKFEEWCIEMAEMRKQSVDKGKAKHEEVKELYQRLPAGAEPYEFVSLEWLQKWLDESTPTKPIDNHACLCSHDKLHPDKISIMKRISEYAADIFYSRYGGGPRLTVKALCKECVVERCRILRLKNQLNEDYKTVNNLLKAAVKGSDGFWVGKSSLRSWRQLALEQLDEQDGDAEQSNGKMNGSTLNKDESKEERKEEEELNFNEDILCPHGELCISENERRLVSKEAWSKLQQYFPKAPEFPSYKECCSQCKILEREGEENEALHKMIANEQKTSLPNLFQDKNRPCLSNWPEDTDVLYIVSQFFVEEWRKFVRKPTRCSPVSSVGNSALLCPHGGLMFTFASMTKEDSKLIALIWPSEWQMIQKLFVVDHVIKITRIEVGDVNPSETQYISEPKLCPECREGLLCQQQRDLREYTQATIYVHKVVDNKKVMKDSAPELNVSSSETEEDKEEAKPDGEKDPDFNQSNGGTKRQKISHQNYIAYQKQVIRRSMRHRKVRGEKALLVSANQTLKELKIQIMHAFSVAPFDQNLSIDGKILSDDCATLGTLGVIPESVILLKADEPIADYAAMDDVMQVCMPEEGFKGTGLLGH
UniProt Q8IWY9: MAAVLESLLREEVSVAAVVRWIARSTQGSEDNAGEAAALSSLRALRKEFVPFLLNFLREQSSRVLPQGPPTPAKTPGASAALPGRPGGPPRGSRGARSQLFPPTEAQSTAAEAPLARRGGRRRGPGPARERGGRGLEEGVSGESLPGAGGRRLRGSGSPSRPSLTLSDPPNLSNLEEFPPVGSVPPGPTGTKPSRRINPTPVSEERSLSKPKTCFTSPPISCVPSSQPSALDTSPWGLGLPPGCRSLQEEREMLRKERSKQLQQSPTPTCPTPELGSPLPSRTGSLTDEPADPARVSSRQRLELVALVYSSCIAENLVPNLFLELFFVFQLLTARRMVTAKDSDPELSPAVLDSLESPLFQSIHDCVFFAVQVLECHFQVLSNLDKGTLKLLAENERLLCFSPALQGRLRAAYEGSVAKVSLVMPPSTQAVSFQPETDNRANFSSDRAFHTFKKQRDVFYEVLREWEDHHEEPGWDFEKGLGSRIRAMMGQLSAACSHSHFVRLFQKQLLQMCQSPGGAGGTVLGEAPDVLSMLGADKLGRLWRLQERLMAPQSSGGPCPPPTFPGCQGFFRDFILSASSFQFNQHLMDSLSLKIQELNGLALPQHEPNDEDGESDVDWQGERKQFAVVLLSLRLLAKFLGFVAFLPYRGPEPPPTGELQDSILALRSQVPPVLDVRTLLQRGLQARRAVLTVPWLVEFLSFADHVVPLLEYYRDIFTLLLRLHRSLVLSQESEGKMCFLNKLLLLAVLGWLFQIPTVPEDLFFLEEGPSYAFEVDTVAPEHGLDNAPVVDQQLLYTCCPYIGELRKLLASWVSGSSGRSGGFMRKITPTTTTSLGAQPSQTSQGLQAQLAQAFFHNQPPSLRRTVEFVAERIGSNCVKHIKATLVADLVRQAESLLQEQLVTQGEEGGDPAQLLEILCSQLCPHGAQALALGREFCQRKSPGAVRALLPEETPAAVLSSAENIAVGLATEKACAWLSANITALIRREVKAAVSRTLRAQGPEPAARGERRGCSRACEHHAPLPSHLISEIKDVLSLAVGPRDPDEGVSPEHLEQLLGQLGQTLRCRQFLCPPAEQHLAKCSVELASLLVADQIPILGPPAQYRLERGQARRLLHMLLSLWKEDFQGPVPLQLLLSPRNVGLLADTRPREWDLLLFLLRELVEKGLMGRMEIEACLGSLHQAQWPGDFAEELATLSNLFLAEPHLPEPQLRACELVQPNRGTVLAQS
UniProt Q8N1K5: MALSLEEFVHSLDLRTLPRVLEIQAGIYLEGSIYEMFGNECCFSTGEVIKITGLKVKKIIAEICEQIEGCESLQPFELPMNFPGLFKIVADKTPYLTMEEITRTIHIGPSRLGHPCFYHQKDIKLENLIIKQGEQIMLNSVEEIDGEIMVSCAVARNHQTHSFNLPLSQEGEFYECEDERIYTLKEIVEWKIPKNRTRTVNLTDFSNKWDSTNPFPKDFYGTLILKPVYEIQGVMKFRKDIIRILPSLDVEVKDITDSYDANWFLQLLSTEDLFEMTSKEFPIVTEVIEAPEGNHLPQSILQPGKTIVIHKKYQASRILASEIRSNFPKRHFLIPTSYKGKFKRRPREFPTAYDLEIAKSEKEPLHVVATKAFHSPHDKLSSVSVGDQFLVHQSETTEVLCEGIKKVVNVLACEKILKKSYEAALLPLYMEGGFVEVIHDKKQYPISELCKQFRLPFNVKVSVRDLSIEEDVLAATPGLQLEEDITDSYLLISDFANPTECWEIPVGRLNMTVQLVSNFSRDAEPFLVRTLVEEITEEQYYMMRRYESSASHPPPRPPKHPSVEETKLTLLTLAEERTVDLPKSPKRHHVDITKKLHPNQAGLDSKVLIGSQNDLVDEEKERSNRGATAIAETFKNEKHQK
UniProt Q8N9M5: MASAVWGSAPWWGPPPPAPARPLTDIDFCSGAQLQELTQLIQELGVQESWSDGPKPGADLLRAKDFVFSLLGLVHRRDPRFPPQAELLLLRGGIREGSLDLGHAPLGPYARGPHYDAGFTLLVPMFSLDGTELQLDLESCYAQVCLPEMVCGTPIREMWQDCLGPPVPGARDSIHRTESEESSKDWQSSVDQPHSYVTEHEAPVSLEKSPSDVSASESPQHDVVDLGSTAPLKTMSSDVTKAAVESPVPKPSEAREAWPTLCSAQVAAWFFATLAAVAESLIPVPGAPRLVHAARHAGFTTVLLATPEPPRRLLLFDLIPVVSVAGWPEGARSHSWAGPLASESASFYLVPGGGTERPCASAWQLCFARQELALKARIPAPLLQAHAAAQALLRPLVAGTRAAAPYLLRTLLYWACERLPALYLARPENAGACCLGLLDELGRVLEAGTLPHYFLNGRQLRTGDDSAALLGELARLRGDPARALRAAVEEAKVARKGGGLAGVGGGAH
UniProt Q86U28: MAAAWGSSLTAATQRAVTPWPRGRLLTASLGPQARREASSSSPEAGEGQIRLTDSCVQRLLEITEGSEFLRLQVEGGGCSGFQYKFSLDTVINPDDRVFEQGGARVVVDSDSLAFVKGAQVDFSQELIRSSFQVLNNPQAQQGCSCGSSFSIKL
UniProt Q8N6M0: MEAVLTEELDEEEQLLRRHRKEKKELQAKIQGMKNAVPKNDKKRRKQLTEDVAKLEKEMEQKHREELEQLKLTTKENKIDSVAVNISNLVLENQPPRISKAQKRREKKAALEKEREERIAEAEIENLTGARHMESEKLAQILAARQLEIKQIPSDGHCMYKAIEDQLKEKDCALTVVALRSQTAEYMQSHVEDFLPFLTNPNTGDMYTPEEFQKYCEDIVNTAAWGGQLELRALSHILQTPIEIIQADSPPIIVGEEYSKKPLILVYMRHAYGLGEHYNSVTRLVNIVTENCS
UniProt Q8IYU8: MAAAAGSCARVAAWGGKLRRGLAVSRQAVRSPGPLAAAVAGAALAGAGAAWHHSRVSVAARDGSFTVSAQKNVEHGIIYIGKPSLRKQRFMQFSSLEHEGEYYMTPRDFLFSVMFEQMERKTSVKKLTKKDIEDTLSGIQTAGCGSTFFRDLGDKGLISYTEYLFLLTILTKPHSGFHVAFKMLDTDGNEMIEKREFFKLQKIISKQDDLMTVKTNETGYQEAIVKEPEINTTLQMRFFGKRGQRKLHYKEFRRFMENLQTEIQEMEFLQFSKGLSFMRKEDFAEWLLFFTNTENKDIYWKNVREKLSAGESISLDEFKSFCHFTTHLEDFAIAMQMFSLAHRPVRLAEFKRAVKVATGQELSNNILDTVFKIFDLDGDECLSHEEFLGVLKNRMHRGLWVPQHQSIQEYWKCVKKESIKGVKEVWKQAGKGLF
UniProt Q8IXS8: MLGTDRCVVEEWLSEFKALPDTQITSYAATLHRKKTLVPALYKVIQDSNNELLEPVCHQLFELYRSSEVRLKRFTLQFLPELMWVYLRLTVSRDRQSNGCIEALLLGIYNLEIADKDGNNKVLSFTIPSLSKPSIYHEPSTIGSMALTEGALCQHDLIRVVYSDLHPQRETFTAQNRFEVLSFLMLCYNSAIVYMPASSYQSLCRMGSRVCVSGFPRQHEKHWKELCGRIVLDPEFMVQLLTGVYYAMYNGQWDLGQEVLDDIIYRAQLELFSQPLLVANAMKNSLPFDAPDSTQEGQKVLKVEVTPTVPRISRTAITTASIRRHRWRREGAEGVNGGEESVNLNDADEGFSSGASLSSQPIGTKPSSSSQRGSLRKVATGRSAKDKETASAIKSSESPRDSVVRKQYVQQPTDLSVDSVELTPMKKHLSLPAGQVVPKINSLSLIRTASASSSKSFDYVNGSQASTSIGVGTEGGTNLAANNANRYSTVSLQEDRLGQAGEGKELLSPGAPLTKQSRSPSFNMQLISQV
UniProt Q8NB46: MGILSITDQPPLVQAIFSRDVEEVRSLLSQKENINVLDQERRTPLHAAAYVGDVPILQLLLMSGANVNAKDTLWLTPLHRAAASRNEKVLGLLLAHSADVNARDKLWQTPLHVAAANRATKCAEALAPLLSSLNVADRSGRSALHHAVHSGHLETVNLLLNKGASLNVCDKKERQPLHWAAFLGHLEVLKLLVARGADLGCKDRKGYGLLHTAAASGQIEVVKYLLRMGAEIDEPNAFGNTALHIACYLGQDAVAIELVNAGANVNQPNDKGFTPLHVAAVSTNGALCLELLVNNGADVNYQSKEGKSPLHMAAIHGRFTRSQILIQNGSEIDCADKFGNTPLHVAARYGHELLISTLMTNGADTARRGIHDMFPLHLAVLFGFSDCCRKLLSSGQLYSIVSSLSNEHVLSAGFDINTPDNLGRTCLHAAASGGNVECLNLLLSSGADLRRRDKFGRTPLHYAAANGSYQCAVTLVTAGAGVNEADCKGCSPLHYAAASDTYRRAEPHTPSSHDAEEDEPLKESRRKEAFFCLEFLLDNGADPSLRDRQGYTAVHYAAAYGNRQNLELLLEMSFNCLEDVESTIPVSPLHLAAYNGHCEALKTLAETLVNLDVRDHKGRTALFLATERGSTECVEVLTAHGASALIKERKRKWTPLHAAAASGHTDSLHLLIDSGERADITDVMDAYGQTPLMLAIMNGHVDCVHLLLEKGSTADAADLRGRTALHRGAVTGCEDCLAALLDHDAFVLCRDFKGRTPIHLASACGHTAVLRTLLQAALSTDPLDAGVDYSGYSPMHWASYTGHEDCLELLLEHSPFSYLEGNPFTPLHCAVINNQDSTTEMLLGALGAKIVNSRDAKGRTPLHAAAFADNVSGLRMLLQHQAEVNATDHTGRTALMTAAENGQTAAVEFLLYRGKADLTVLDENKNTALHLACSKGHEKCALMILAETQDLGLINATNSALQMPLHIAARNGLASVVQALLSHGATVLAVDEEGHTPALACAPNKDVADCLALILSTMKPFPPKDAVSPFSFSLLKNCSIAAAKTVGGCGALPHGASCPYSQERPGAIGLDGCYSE

Compound in the assay: Nc1ncnc2c1ncn2[C@@H]1O[C@H](COP(=O)(O)OP(=O)(O)NP(=O)(O)O)[C@@H](O)[C@H]1O [adenylyl imidodiphosphate]
In words: NP40-soluble protein abundance relative to vehicle (solubility fold change) (ratio); higher = more soluble protein in presence of AMP-PNP. The method, boiled down:
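In three independent experiments, Jurkat crude lysate made by Dounce homogenisation was treated for 10 min at room temperature and then 3 min at 37 °C with eight concentrations ranging from 0.1 to 10 mM. It was then solubilised with 0.8% NP40 plus benzonase for 60 min at 4 °C and ultracentrifuged. The supernatant was TMT-labelled for LC-MS/MS, and each value is the fold change against the detergent-processed vehicle for the same replicate, using vsn-normalised intensities.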

± gives the standard deviation of the averaged measurements. The entries are a selection whose mix differs from that of the whole data set. Small differences around the control level are noise.

For ZC3H7A (UniProt Q8IWR0), the NP40-soluble protein abundance reads like this: (concentration: 0.1mM) 0.995 ± 0.015; (concentration: 0.5mM) 0.999 ± 0.043.
In the same order, the values of UniProt Q8IZ81 and related entries are 0.955 ± 0.029 and 0.982 ± 0.053.
For the target UniProt Q86WA6 and related entries, the NP40-soluble protein abundance came to 0.999 ± 0.015 (concentration: 0.1mM) and 0.9823 ± 0.0058 (concentration: 0.5mM).
In the same order, the values of UniProt Q8IXW5 and related entries are 1 ± 0.024 and 1.02 ± 0.044.
Take UniProt Q8N6R0 and related entries: the NP40-soluble protein abundance is, setting by setting: (concentration: 0.1mM) 1.01 ± 0.05; (concentration: 0.5mM) 0.97 ± 0.077.
In the same order, the values of UniProt Q8N490 and related entries are 0.975 ± 0.013 and 0.987 ± 0.022.
Turning to USP48 (UniProt Q86UV5), the NP40-soluble protein abundance stood at 0.98 ± 0.037 (concentration: 0.1mM) and 0.983 ± 0.0014 (concentration: 0.5mM).
In the same order, the values of UniProt Q8IWY9 and related entries are 0.99 ± 0.021 and 0.9669 ± 0.0032.
In the same order, the values of GSPT2 (UniProt Q8IYD1) are 1.02 ± 0.068 and 1.05 ± 0.071.
In the same order, the values of UniProt Q8N1K5 and related entries are 0.988 ± 0.015 and 0.962 ± 0.059.
As to SUPV3L1 (UniProt Q8IYB8), the NP40-soluble protein abundance is, setting by setting: (concentration: 0.1mM) 1.02 ± 0.017; (concentration: 0.5mM) 0.986 ± 0.072.
On to UniProt Q86TM6 and related entries, for which the NP40-soluble protein abundance amounted to 0.996 ± 0.043 (concentration: 0.1mM) and 0.971 ± 0.027 (concentration: 0.5mM).
With TMEM102 (UniProt Q8N9M5), the NP40-soluble protein abundance reads like this: (concentration: 0.1mM) 1 ± 0.057; (concentration: 0.5mM) 1.03 ± 0.069.
In the same order, the values of ISCA2 (UniProt Q86U28) are 1.09 ± 0.054 and 0.997 ± 0.037.
In the same order, the values of UniProt Q86SK9 and related entries are 0.9858 ± 0.006 and 0.976 ± 0.064.
In the same order, the values of UniProt Q8N6M0 and related entries are 1.01 ± 0.024 and 1.05 ± 0.045.
On to UniProt Q8IYU8 and related entries, for which the NP40-soluble protein abundance is 1 ± 0.012 (concentration: 0.1mM) and 0.974 ± 0.018 (concentration: 0.5mM).
In the same order, the values of UniProt Q7Z7A4 and related entries are 1.01 ± 0.073 and 0.982 ± 0.043.
In the same order, the values of FAM126B (UniProt Q8IXS8) are 0.983 ± 0.029 and 0.98 ± 0.029.
For ANKRD52 (UniProt Q8NB46), the NP40-soluble protein abundance was determined as 1.01 ± 0.022 (concentration: 0.1mM) and 0.991 ± 0.024 (concentration: 0.5mM).
